Measured values as given in paper PMC5025166.

The chains behind the UniProt entries cited, without tags or fusion partners.
UniProt Q925T6: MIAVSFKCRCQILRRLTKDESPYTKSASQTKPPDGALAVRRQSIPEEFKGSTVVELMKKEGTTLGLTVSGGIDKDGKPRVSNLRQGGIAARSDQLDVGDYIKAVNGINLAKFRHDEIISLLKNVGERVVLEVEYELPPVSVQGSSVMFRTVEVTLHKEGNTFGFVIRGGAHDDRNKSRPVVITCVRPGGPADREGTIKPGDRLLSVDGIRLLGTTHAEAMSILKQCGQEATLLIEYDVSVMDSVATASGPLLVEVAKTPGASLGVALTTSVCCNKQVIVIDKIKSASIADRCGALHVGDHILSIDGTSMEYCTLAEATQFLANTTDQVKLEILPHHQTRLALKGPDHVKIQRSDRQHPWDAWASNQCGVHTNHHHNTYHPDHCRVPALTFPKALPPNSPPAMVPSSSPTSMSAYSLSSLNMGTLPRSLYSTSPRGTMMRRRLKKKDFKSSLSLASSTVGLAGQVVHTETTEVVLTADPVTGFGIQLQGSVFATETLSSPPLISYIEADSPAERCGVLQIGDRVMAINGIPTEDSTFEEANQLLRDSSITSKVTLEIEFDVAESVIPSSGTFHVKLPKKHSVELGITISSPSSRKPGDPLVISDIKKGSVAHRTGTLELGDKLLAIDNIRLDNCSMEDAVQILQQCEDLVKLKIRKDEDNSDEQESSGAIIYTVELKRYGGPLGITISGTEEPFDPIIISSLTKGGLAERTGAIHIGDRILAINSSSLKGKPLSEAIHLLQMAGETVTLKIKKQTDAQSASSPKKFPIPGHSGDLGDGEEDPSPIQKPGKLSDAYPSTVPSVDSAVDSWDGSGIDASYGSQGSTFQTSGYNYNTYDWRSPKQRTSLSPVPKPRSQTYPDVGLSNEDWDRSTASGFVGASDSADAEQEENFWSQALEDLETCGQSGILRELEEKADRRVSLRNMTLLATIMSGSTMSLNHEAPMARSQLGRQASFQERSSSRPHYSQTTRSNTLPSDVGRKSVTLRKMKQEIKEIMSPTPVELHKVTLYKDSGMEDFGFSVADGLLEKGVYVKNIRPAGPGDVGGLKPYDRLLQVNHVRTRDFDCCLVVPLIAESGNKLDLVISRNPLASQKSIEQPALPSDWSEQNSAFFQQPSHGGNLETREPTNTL
UniProt P17742: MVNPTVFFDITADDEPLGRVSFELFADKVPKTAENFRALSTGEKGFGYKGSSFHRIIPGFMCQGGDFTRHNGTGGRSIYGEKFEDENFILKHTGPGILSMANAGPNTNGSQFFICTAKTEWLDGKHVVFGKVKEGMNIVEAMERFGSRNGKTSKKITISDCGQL
UniProt P63101: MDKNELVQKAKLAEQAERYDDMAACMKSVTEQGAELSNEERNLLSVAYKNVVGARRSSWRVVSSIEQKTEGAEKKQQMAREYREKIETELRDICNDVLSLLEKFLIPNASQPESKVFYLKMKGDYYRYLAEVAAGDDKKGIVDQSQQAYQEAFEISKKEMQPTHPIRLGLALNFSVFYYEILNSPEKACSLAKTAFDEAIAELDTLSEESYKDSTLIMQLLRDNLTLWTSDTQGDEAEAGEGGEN

B1: Zyxin (protein, UniProt Q62523 1-564)
chain: MAAPRPPPAISVSVSAPAFYAPQKKFAPVVAPKPKVNPFRPGDSEPPVAAGAQRAQMGRVGEIPPPPPEDFPLPPPPLIGEGDDSEGALGGAFPPPPPPMIEEPFPPAPLEEDIFPSPPPPLEEEGGPEAPTQLPPQPREKVCSIDLEIDSLSSLLDDMTKNDPFKARVSSGYVPPPVATPFVPKPSTKPAPGGTAPLPPWKTPSSSQPPPQPQAKPQVQLHVQPQAKPHVQPQPVSSANTQPRGPLSQAPTPAPKFAPVAPKFTPVVSKFSPGAPSGPGPQPNQKMVPPDAPSSVSTGSPQPPSFTYAQQKEKPLVQEKQHPQPPPAQNQNQVRSPGGPGPLTLKEVEELEQLTQQLMQDMEHPQRQSVAVNESCGKCNQPLARAQPAVRALGQLFHITCFTCHQCQQQLQGQQFYSLEGAPYCEGCYTDTLEKCNTCGQPITDRMLRATGKAYHPQCFTCVVCACPLEGTSFIVDQANQPHCVPDYHKQYAPRCSVCSEPIMPEPGRDETVRVVALDKNFHMKCYKCEDCGKPLSIEADDNGCFPLDGHVLCRKCHSARAQT
B2: GPIbβ (receptor, UniProt P56400 27-206)
chain: PAPCSCAGTLVDCGRRGLTWASLPAAFPPDTTELVLTGNNLTALPPGLLDALPALRAAHLGANPWRCDCRLLPLRAWLAGRPERAPYRDLRCVAPPALRGRLLPYVAEDELRAACAPGLLCWGALVAQLALLVLGLLHALLLALLLGRLRRLRARARARSIQEFSLTAPLVAESARGGAS
B3: Pleckstrin (protein, UniProt Q9JHK5 1-350)
chain: MEPKRIREGYLVKKGSVFNTWKPMWVVLLEDGIEFYKKKSDNSPKGMIPLKGSTLTSPCQDFGKRMFVLKITTTKQQDHFFQAAFLEERDAWVRDIKKAIKCIEGGQKFARKSTRRSIRLPETIDLGALYLSMKDPEKGIKELNLEKDKKVFNHCLTGSGVIDWLVSNKLVRNRQEGLMISASLLSEGYLQPAGDLSKNAADGIAENPFLDSPDAFYYFPDSGFFCEENSSDDDVILREEFRGVIIKQGCLLKQGHRRKNWKVRKFILREDPAYLHYYDPAGGEDPLGAVHLRGCVVTSVESSHDVKKSDEENLFEIITADEVHYYLQAATSKERTEWIKAIQVASRTGK

Molecular target: Glutamate receptor interacting protein 1 (mouse (endogenous in mouse platelets)) (UniProt Q925T6)
Assay: affinity purification with mass spectrometry; GRIP1 immunoprecipitated (sc-29834) from WT mouse platelets, GRIP1-/- platelets as negative control; band excision, trypsin digestion, LTQ LC/MS

| binding | Molecule |
| --- | --- |
| binds | Cyclophilin A (from UniProt P17742 1-164) |
| binds | 14-3-3ζ (from UniProt P63101 1-245) |
| binds | B1 |
| binds | B2 |
| binds | B3 |

No constants are given. Whether binding was seen depends on the method and setting. Binding seen in cells or lysates may run through a third protein. These calls come from enrichment with a bait or labelling near it, and not all partners need be listed.
